From US6893829B2, “Human leukocyte 12-lipoxygenase and its role in the pathogenesis of disease states” (City of Hope, priority 1992, dated 2005)
Some results were stated once for a whole list of compounds, not compound by compound.

Test system: leukocyte 12-LO mRNA in HSMC
Assay: 12-LO mRNA expression in HSMC (RT-PCR)
Format: cell-based, human
Conditions: low serum medium, 24 hours, 5 ng/ml
Excerpt: FIGS. 5A and 5B illustrate the regulation of leukocyte 12-LO mRNA levels by AII in HSMC using RT-PCR. FIG. 5A is the autoradiogram of the blot hybridized with 12-LO oligonucleotide probe. FIG. 5B is etidium bromide stained agarose gel. […] RNA samples were amplified for 40 cycles with leukocyte 12-LO primers or GAPDH primers.
Total RNA from cultured HSMC, HAEC and fresh MO was extracted with guanidiumthiocyanate-phenol-chloroform using RNAzol (Cinna/Biotecx Laboratories International Inc., Texas). Some RNA samples were treated by RNAse-free DNAse. […]
20 μl aliquots of the PCR products were subjected to electrophoresis in a 1.8% agarose gel in Tris acetate-EDTA buffer. […] Blots were quantitated using a computerized video densitometer.
In order to evaluate the specific expression and regulation of 12-LO mRNA in HSMC, applicants used a RT-PCR assay that exclusively amplifies the leucocyte type of 12-LO. […] When PCR conditions were used that were specific for either the platelet type 12-LO or human 15-LO no specific RNA band was detected (data not shown). […]

Substance: IL-8: cytokine IL-8
- increase in 12-LO mRNA expression relative to untreated cells: 7-10 fold
